Results are given in words; binding and its absence hold for the method and conditions named. Binding seen in cells or lysates may run through a third protein. Some entries that bind do so weakly or less than the wild type.
Target: IκBα, endogenous (mouse (endogenous in brain tissue)) (UniProt Q9Z1E3)
Assay: co-IP; endogenous proteins, lysates prepared from brain tissue; immunoblot

Amino acid sequences for entries named in this document (tags omitted).
UniProt Q9Z1E3: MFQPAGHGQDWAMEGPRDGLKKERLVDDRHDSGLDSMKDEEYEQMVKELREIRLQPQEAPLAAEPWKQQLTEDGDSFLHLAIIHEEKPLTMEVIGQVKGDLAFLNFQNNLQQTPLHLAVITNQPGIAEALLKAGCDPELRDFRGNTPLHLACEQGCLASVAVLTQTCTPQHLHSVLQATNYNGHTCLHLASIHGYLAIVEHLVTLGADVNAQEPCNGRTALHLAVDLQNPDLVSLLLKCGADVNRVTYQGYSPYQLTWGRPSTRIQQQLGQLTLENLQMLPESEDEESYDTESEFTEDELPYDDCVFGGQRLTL

B1: Tripartite motif-containing 67 (TRIM67), endogenous (protein, UniProt Q505D9 1-768)
chain: MEEELKCPVCGSLFREPIILPCSHNVCLPCARTIAVQTPDGEQHLPPPLLLSRGAAAAATPPDQDAAAGATSGGAGANTAGGLGGGATGGGDHADKLSLYSETDSGYGSYTPSLKSPNGVRVLPMVPAPPGSSAAAARGAACSSLCSSSSSITCPQCHRSASLDHRGLRGFQRNRLLEGIVQRYQQGRGVVPGAAAAPAVAICQLCDRTPPEPAATLCEQCDVLYCATCQLKCHPSRGPFAKHRLVQPPPPPTPPEATPAVTGTSTASSAGGCRSPGGAGASAPRKFPTCPEHEMENYSMYCVSCRSPVCYMCLEEGRHSKHEVKPLGATWKQHKAQLSQALNGVSDKAKEAKEFLVQLKNILQQIQENGLDYEACLVAQCDALVDALTRQKAKLLTKVTKEREHKLKMVWDQINHCTLKLRQSTGLMEYCLEVIKEDDPSGFLQISDALIKRVQTSQEQWVKGALEPKVSAEFDLTLDSEPLLQAIHQLDFVQMKLPPVPLLQLEKCCTRNNSVTLAWRTPPFTHSPAEGYILELDDGDGGQFREVYVGKETLCTIDGLHFNSTYNARVKAFNSSGVGPYSKTVVLQTSDVAWFTFDPNSGHRDIILSNDNQTATCSSYDDRVVLGTAAFSKGVHYWELHVDRYDNHPDPAFGVARASVVKDMMLGKDDKAWAMYVDNNRSWFMHCNSHTNRTEGGVCKGATVGVLLDLNKHTLTFFINGQQQGPTAFSHVDGVFMPALSLNRNVQVTLHTGLEVPTNLGRPKLSGN
For B1, the binding was “binds”.

Reference: article PMC10226213
